Results are given in words; binding and its absence hold for the method and conditions named. Binding calls can cover weak binding; strength is not graded here. Tags and fused reporters may be left off the sequences shown. For part of these data: Binding seen in cells or lysates may run through a third protein.
How the values were obtained:
[1] = biological target: T1, FliP-3×FLAG (chromosomally encoded, expressed from the native fliP locus) (S. enterica serovar Typhimurium LT2) (UniProt P54700); assay: native gel or EMSA; BN-PAGE (3%–12%) of crude membrane extracts solubilised in DDM, strain with chromosomal FliP-3×FLAG; FliP-containing complexes found by anti-FLAG Western blot, selected bands analysed by LC-MS/MS
T1 sequence: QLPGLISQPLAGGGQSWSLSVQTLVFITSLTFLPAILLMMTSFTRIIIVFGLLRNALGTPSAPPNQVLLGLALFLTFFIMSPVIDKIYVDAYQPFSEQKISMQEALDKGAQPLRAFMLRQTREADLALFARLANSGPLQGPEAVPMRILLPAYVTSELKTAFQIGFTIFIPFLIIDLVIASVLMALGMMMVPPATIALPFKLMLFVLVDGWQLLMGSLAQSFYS

Sequences of proteins named here, by UniProt entry; tags and fusion partners are left off. A change or cut given only in a name is not applied to a line headed by its entry.
UniProt A0A2X4T7I8: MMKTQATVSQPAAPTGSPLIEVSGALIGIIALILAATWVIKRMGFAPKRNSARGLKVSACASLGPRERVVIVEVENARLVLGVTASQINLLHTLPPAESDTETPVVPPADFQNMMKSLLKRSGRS

[2] = biological target: T2, His6-FliP (expressed from pTrc99a-fliO-fliP_(His6) in E. coli) (UniProt P54700); assay: pull-down + SEC; FliO and FliP_(His6) co-expressed in E. coli; crude membranes solubilised in DDM; Ni-NTA affinity purification of FliP_(His6), then size exclusion chromatography; fractions analysed by Coomassie and anti-FliP / anti-FliO Western blot
T2 sequence: T1 sequence

[3] = biological target: FliO-3×FLAG (chromosomally encoded) (S. enterica serovar Typhimurium LT2); assay: co-IP; pull down of chromosomal FliO-3×FLAG on anti-FLAG M2 affinity gel from DDM-solubilised crude membrane extracts of a rod− background; chromosomal FliP-3×HA co-purified

FliO (untagged, endogenous in S. Typhimurium) (from UniProt A0A2X4T7I8)
binding [1]: binds

FliO (co-expressed with His6-FliP in E. coli)
binding [2]: binds

B1: FliP-3×HA (chromosomally encoded) (protein, UniProt P54700 22-245)
chain: T1 sequence
binding [3]: binds

— PMC5542435
